Patent publication US10220008B2, “Treatment and prevention of stroke and other neurological disorders” (STC.UNM, priority 2013, dated 2019)
Structures can show the parent of a compound that is named as a salt. Some entries share one result that the patent states for a list of compounds.

Each compound was assayed on primary cortical neurons (assay: Secondary screening: TUNEL apoptosis assay after 2 hours OGD, compounds given at or after reoxygenation). Conditions: administered at reoxygenation after 2 hours OGD, doses 0.1 to 100 μM; read 24 hours later.
Type: cell-based, Spraque-Dawley rat
Procedure: Cortical neurons were obtained from Spraque-Dawley rat embryos at day 18 of gestation. Cortices were triturated and pre-plated 4 times for 30 minutes in 150 mm vacuum-plasma treated dishes (BD). During these pre-plating steps, primarily non-neuronal cells adhere to the dish, thereby enriching the neuronal population. Enriched neurons were plated in Neurobasal medium containing 2% fetal bovine serum (FBS), 25 μM Glutamax, and penicillin-streptomycin (Gibco) in poly-D-lysine-coated white clear-bottomed 96-well plates or 24-well plates (Becton-Dickinson) at a density of 50×10^3/cm^2. Twenty-four hours later (1 day in vitro, 1 DIV), 50% of the medium was replaced with Neurobasal medium, 2% B27 (Gibco), and 4 μM cytosine arabinoside (AraC) (2 μM AraC final). At 5 DIV, 50% of the medium was replaced with Neurobasal, 2% B27. At 7 DIV, cortical cultures were 98% neurons as assessed by microtubule-associated protein 2 (MAP2) antibody labeling and flow cytometry analysis (data not shown). In vitro experiments were performed in quadruplicate and results are shown as means with standard deviation.
Neuroprotection by candidate compounds was assayed by measurement of apoptosis using terminal deoxynucleotidyl transferase dUTP nick end labeling (TUNEL) reagents as described previously.^6 At 7 DIV, primary neurons grown on poly-D-lysine-coated 22 mm-diameter cover slips in 24-well plates underwent 2 hours of OGD and were treated with a range of doses of each compound at reoxygenation. Compounds providing greater than 2-fold protection over vehicle were then administered at the optimal dose after OGD at intervals of 0, 15, 30, and 60 minutes post-reoxygenation.

SMILES	increase in survival over vehicle (TUNEL) [fold]
C[C@H](COc1ccccc1)N[C@H](C)[C@H](O)c1ccc(O)cc1 (racemic) [Isoxsuprine hydrochloride, 4-{1-hydroxy-2-[(1-methyl-2-phenoxyethyl)amino]propyl}phenol]	≥ 2
NC(=O)OCC(O)COc1ccc(Cl)cc1 (stereo not drawn) [Chlorphenesin carbamate]	≥ 2
CCNCC(O)c1cccc(O)c1 (stereo not drawn) [Etilefrine hydrochloride]	≥ 2
